Paper PMC9342900, “Cryo-EM structures of the Synechocystis sp. PCC 6803 cytochrome b6f complex with and without the regulatory PetP subunit” (Biochemical Journal, 2022)
These are yes or no findings as the source states them, for the method shown. In cells and extracts the contact can be indirect. A result given as binding can be weak or reduced; the word gives no strength. Sequences can lack the tags named with a protein.

Biological target: T1, N-terminally hexa-Histidine (His)-tagged PetP (Synechocystis sp. PCC 6803) (UniProt P72798)
T1 sequence: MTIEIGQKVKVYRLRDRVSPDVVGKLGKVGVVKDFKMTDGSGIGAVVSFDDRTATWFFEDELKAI
Test: pull-down; Synechocystis thylakoids (solubilized) applied to Ni2+-NTA agarose columns functionalized with His-PetP; washed and eluted as for purified cytb6f; control columns without His-PetP; only the target purified

binding: binds
Substance: cytochrome b6f complex in solubilized Synechocystis thylakoid membranes
